PubChem BioAssay AID1224826, NIAID – 2016
In all, the deposit lists about 17,000 reagents; shown is a part drawn at random. About 1,110 of them (6.6%) count as active. 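Active means lowered or raised reporter signal; replicate intensities are raw and not normalised per plate.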 The numbers tell different reagents against one gene apart. Reagent sequences are not shown.

Test: 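Genes that change LPS-induced Tnf promoter activity in mouse macrophages when knocked down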 (primary screen)
Cells: RAW264.7 G9 macrophages from mouse bearing reporters for p65 (GFP) and the Tnf promoter (mCherry)
Reagent: siRNA pool against mouse genes, 100 nM
Time to read-out: 16 h of LPS stimulation, after 2 days of siRNA transfection
Treatment: bacterial lipopolysaccharide (Salmonella minnesota R595), 10 ng/ml
Read-out: 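Nuclear mCherry signal of the Tnf promoter reporter measured by imaging after background removal, scaled to each plate median and turned into robust z-scores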
Direction: Tnf reporter robust z-score: higher = stronger Tnf promoter reporter signal after LPS; Tnf reporter intensity: higher = stronger Tnf promoter reporter signal
Rule for the call: 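a well counts as active at a score of -1.3 or below (Tlr4 knock-down control median) or above 3 (raised signal); controls and wells holding fewer than 50 cells are excluded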
Calls: active = Tnf reporter clearly lowered or raised; inactive = no clear change in Tnf reporter

| target | pool no. | Tnf reporter robust z-score | fewer than 50 cells in well | Tnf reporter intensity, replicate 1 | Tnf reporter intensity, replicate 2 | Call |
| --- | --- | --- | --- | --- | --- | --- |
| Macroh2a3 (macroH2A.3 histone) | 1 | -1.19 | enough cells in well | 170 | 82.9 | inactive |
| Grm3 (glutamate receptor, metabotropic 3) | 1 | -0.96 | enough cells in well | 153 | 186 | inactive |
| Atat1 (alpha tubulin acetyltransferase 1) | 1 | – | fewer than 50 cells per well; well left out of calls | 196 | 71 | inactive |
| Kat14 (lysine acetyltransferase 14) | 1 | 0.14 | enough cells in well | 260 | 114 | inactive |
| Trem2 (triggering receptor expressed on myeloid cells 2) | 1 | -0.46 | enough cells in well | 180 | 210 | inactive |
| Pggt1b (protein geranylgeranyltransferase type I, beta subunit) | 1 | -0.13 | enough cells in well | 219 | 197 | inactive |
| Hoxd3 (homeobox D3) | 1 | -0.21 | enough cells in well | 226 | 170 | inactive |
| Slc5a3 | 1 | -1.23 | enough cells in well | 73.1 | 44.5 | inactive |
| Ccdc187 (coiled-coil domain containing 187) | 1 | – | fewer than 50 cells per well; well left out of calls | 180 | 45.3 | inactive |
| Cxcl1 (C-X-C motif chemokine ligand 1) | 1 | -0.4 | enough cells in well | 147 | 325 | inactive |
| Hnmt (histamine N-methyltransferase) | 1 | 1.11 | enough cells in well | 301 | 282 | inactive |
| Crispld1 (cysteine-rich secretory protein LCCL domain containing 1) | 1 | -1.36 | enough cells in well | 47.9 | 151 | active |
| Tor1aip1 (torsin A interacting protein 1) | 1 | -0.64 | enough cells in well | 131 | 130 | inactive |
| Farsa (phenylalanyl-tRNA synthetase, alpha subunit) | 1 | -1.35 | enough cells in well | 135 | 115 | active |
| Or52d1 (olfactory receptor family 52 subfamily D member 1) | 1 | 3.87 | enough cells in well | 241 | 253 | active |
| Skint10 (selection and upkeep of intraepithelial T cells 10) | 1 | -0.88 | enough cells in well | 101 | 125 | inactive |
| Musk (muscle, skeletal, receptor tyrosine kinase) | 1 | 0.39 | enough cells in well | 216 | 123 | inactive |
| Ugt1a1 (UDP glucuronosyltransferase 1 family, polypeptide A1) | 1 | -0.69 | enough cells in well | 92.4 | 69.3 | inactive |
| Tubgcp3 (tubulin, gamma complex component 3) | 1 | 0.4 | enough cells in well | 285 | 232 | inactive |
| Acsf3 (acyl-CoA synthetase family member 3) | 1 | 2.59 | enough cells in well | 399 | 374 | inactive |
| Cdyl2 (chromodomain protein, Y chromosome-like 2) | 1 | 2 | enough cells in well | 245 | 337 | inactive |
| Tnfrsf1b (tumor necrosis factor receptor superfamily, member 1b) | 1 | -1.19 | enough cells in well | 154 | 70.8 | inactive |
| Sema3e | 1 | -0.19 | enough cells in well | 211 | 132 | inactive |
| Sema3e | 2 | – | fewer than 50 cells per well; well left out of calls | 74.5 | 57 | inactive |
| Efl1 (elongation factor like GTPase 1) | 1 | 1.35 | enough cells in well | 259 | 213 | inactive |
| Rnf151 (ring finger protein 151) | 1 | -1.58 | enough cells in well | 98.5 | 37.2 | active |
| Ccdc7a (coiled-coil domain containing 7A) | 1 | 1.76 | enough cells in well | 359 | 96 | inactive |
| Pepd (peptidase D) | 1 | -0.6 | enough cells in well | 185 | 150 | inactive |
| Or2ag13 (olfactory receptor family 2 subfamily AG member 13) | 1 | 2.47 | enough cells in well | 202 | 188 | inactive |
| Or51ac3 (olfactory receptor family 51 subfamily AC member 3) | 1 | 4.01 | enough cells in well | 218 | 294 | active |
| Cgnl1 (cingulin-like 1) | 1 | 0.01 | enough cells in well | 155 | 150 | inactive |
| Sebox (SEBOX homeobox) | 1 | 0.57 | enough cells in well | 293 | 122 | inactive |
| Brat1 (BRCA1-associated ATM activator 1) | 1 | -0.97 | enough cells in well | 112 | 107 | inactive |
| Acsm4 (acyl-CoA synthetase medium-chain family member 4) | 1 | 1.59 | enough cells in well | 33.9 | 255 | inactive |
| Kdm1b (lysine (K)-specific demethylase 1B) | 1 | 0.96 | enough cells in well | 277 | 244 | inactive |
| Asb6 (ankyrin repeat and SOCS box-containing 6) | 1 | -0.47 | enough cells in well | 131 | 151 | inactive |
| Atp6v1d (ATPase, H+ transporting, lysosomal V1 subunit D) | 1 | -0.61 | enough cells in well | 118 | 125 | inactive |
| Lima1 (LIM domain and actin binding 1) | 1 | 0.35 | enough cells in well | 227 | 176 | inactive |
| Or6z3 (olfactory receptor family 6 subfamily Z member 3) | 1 | -1.05 | enough cells in well | 105 | 85.8 | inactive |
| Osr1 (odd-skipped related transcription factor 1) | 1 | -0.83 | enough cells in well | 186 | 66.7 | inactive |
| Usp30 (ubiquitin specific peptidase 30) | 1 | -0.18 | enough cells in well | 198 | 237 | inactive |
| Pcgf1 (polycomb group ring finger 1) | 1 | 0 | enough cells in well | 262 | 166 | inactive |
| Jazf1 (JAZF zinc finger 1) | 1 | 0.18 | enough cells in well | 232 | 187 | inactive |
| Cubn (cubilin) | 1 | -1.15 | enough cells in well | 150 | 118 | inactive |
| Rnf181 (ring finger protein 181) | 1 | 0.06 | enough cells in well | 233 | 78.4 | inactive |
| Mical3 | 1 | 0.01 | enough cells in well | 238 | 107 | inactive |
| Nat9 (N-acetyltransferase 9 (GCN5-related, putative)) | 1 | -0.02 | enough cells in well | 280 | 57.5 | inactive |
| Sostdc1 (sclerostin domain containing 1) | 1 | -0.89 | enough cells in well | 44.1 | 63.2 | inactive |
| Prpf19 (pre-mRNA processing factor 19) | 1 | – | fewer than 50 cells per well; well left out of calls | 0 | 56.6 | inactive |
| Ncf2 (neutrophil cytosolic factor 2) | 1 | -0.97 | enough cells in well | 195 | 124 | inactive |
| Rnf182 (ring finger protein 182) | 1 | -1.19 | enough cells in well | 123 | 72 | inactive |
| Wscd1 (WSC domain containing 1) | 1 | 0.08 | enough cells in well | 204 | 222 | inactive |
| Prss33 (serine protease 33) | 1 | -1.85 | enough cells in well | 69.5 | 43.5 | active |
| Or7d10 (olfactory receptor family 7 subfamily D member 10) | 1 | – | fewer than 50 cells per well; well left out of calls | 85.1 | 76.4 | inactive |
| Nexn (nexilin) | 1 | -0.44 | enough cells in well | 210 | 81.3 | inactive |
| Map7d3 (MAP7 domain containing 3) | 1 | -0.18 | enough cells in well | 183 | 123 | inactive |
| Kcnj14 | 1 | -1.03 | enough cells in well | 156 | 65.1 | inactive |
| Nsa2 (NSA2 ribosome biogenesis homolog) | 1 | -0.02 | enough cells in well | 147 | 148 | inactive |
